These are yes or no findings as the source states them, for the method shown. Binding seen in cells or lysates may run through a third protein. Binding can be weak; no strength is given. Tags and fused reporters may be left off the sequences shown.
Biological target: T1, His6-PfI2WT (Plasmodium falciparum) (UniProt C0H480)
T1 sequence: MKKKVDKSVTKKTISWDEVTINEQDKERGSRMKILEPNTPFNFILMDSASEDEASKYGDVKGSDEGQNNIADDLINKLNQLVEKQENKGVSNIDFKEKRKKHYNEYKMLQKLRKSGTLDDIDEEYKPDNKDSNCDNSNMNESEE
Assay: co-IP; only the target purified

## Xenopus PP1 (from UniProt P36874) (enzyme)
  binding: binds

Reference: publication PMC3735429, “Plasmodium falciparum encodes a conserved active inhibitor-2 for Protein Phosphatase type 1: perspectives for novel anti-plasmodial therapy” (BMC Biology, 2013)
